Experimental data taken from the supplement of paper PMC10849652.
The list shows a part of the results.

Chains of the proteins cited; added tags and fusions are not shown. Lines headed by an entry give the natural chain unless they say otherwise; changes in a name come on top.
UniProt P05090: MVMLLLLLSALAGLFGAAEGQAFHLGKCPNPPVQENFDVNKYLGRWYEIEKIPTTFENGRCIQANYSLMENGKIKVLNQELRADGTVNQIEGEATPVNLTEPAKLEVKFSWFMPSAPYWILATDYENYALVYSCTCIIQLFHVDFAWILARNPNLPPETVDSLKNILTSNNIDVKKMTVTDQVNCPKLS
UniProt P02656: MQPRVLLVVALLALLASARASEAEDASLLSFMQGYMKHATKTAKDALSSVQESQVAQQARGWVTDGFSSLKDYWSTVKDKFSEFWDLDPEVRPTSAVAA
UniProt Q8IWW6: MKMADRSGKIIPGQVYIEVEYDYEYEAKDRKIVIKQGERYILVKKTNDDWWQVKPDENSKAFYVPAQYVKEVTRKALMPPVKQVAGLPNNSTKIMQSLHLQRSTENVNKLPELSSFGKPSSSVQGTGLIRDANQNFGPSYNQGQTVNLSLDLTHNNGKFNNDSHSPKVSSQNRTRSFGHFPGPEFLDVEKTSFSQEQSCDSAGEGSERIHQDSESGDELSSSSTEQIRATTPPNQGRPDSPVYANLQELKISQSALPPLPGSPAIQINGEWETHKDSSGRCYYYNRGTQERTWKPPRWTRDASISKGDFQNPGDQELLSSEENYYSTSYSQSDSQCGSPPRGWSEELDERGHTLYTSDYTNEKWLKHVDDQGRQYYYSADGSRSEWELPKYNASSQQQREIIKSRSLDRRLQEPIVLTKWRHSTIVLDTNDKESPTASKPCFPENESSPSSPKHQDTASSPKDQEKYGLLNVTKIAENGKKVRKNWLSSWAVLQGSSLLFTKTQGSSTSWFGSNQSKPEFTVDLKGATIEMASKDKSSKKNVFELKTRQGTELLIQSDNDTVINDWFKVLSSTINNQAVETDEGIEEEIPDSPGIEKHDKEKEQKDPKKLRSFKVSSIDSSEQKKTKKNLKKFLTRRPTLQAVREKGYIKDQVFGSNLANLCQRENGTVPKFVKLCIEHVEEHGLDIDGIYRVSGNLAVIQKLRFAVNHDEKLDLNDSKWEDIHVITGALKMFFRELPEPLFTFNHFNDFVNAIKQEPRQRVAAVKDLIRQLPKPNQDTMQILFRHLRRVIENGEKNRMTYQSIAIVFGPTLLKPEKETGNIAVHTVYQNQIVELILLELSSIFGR
UniProt Q9H6L4: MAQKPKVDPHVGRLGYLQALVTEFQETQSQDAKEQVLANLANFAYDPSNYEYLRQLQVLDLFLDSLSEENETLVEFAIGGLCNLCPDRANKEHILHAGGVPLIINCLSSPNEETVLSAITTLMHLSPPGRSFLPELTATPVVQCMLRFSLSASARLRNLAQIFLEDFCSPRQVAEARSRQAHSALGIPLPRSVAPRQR
UniProt Q9Y689: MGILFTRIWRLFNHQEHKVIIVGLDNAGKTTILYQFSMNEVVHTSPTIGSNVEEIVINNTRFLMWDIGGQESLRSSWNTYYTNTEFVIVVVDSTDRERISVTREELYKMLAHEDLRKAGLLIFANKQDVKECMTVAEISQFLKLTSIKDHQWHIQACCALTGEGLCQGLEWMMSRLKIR
UniProt Q93070: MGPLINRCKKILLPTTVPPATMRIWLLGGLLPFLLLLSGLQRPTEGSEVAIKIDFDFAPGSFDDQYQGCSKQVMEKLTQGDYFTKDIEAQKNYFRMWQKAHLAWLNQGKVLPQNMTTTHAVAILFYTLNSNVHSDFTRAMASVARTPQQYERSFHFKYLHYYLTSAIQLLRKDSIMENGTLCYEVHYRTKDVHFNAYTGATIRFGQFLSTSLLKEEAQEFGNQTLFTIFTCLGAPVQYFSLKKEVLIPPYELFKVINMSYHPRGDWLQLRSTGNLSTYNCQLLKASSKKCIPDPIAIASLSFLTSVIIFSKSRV
UniProt Q6ZUM4: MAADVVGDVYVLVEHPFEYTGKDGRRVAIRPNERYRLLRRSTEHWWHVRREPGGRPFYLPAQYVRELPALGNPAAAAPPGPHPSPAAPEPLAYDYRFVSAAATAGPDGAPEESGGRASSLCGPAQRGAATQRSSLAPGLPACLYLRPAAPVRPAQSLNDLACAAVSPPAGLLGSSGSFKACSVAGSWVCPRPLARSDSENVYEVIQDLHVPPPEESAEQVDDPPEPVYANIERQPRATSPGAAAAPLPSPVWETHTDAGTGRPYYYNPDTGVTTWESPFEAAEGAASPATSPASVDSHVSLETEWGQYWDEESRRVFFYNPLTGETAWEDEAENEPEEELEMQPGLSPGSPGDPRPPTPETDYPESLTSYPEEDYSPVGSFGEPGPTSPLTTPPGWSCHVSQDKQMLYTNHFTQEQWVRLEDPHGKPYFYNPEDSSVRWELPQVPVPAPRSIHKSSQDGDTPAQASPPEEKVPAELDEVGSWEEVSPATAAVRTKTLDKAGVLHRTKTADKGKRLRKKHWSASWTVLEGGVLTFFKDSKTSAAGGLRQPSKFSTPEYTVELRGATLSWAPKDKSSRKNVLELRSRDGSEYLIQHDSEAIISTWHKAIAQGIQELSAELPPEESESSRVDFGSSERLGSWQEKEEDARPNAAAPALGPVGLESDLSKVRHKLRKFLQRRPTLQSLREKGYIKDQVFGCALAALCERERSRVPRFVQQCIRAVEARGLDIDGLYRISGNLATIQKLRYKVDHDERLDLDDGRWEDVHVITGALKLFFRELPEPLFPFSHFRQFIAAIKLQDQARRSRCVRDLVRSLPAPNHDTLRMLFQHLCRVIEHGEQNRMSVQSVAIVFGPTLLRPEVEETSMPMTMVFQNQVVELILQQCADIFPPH
UniProt Q7Z2E3: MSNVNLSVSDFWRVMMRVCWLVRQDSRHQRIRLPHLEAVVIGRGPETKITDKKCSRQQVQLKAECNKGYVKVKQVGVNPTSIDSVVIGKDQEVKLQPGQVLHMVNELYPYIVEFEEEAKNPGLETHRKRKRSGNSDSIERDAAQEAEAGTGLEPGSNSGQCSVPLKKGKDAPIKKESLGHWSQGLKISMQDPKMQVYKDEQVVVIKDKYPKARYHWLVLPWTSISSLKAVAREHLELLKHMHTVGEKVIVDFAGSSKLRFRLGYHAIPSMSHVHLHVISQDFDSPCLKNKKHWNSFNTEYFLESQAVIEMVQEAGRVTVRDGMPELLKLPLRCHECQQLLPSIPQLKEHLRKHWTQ
UniProt Q66PJ3: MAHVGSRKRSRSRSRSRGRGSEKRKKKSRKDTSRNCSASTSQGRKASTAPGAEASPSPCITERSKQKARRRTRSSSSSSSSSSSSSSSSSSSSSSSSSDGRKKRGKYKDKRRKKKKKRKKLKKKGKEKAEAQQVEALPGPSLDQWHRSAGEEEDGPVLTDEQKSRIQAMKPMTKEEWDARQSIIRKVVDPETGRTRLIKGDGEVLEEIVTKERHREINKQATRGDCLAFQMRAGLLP
UniProt P53367: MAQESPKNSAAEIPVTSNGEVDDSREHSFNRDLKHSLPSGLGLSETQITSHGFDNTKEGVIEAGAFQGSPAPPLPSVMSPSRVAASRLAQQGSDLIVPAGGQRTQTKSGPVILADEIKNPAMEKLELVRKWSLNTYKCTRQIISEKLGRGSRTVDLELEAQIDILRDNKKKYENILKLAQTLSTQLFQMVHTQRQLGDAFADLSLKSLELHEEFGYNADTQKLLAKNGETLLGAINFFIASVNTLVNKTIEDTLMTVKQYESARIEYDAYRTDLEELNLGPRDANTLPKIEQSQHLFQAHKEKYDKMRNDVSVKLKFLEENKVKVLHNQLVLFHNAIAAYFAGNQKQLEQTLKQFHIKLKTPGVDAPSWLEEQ
UniProt P40617: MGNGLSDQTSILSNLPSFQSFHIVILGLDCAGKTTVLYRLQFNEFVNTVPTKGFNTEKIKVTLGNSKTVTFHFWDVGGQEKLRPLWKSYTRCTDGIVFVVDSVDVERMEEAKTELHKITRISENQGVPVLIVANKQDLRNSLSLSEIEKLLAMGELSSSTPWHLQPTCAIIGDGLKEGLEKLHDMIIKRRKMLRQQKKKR
UniProt Q53QZ3: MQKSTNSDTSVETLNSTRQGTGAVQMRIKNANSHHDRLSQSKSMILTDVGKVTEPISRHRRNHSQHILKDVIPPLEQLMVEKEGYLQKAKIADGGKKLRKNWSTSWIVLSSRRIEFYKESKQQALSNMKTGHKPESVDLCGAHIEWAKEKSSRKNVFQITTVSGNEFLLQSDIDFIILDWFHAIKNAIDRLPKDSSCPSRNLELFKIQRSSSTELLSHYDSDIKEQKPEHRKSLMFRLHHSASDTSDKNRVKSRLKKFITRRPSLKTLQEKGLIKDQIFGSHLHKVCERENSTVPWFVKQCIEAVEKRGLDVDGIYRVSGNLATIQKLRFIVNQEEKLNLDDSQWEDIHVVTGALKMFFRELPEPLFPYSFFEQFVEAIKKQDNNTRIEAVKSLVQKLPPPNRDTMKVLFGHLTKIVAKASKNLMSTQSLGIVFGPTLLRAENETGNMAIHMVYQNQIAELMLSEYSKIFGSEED
UniProt Q8WWN8: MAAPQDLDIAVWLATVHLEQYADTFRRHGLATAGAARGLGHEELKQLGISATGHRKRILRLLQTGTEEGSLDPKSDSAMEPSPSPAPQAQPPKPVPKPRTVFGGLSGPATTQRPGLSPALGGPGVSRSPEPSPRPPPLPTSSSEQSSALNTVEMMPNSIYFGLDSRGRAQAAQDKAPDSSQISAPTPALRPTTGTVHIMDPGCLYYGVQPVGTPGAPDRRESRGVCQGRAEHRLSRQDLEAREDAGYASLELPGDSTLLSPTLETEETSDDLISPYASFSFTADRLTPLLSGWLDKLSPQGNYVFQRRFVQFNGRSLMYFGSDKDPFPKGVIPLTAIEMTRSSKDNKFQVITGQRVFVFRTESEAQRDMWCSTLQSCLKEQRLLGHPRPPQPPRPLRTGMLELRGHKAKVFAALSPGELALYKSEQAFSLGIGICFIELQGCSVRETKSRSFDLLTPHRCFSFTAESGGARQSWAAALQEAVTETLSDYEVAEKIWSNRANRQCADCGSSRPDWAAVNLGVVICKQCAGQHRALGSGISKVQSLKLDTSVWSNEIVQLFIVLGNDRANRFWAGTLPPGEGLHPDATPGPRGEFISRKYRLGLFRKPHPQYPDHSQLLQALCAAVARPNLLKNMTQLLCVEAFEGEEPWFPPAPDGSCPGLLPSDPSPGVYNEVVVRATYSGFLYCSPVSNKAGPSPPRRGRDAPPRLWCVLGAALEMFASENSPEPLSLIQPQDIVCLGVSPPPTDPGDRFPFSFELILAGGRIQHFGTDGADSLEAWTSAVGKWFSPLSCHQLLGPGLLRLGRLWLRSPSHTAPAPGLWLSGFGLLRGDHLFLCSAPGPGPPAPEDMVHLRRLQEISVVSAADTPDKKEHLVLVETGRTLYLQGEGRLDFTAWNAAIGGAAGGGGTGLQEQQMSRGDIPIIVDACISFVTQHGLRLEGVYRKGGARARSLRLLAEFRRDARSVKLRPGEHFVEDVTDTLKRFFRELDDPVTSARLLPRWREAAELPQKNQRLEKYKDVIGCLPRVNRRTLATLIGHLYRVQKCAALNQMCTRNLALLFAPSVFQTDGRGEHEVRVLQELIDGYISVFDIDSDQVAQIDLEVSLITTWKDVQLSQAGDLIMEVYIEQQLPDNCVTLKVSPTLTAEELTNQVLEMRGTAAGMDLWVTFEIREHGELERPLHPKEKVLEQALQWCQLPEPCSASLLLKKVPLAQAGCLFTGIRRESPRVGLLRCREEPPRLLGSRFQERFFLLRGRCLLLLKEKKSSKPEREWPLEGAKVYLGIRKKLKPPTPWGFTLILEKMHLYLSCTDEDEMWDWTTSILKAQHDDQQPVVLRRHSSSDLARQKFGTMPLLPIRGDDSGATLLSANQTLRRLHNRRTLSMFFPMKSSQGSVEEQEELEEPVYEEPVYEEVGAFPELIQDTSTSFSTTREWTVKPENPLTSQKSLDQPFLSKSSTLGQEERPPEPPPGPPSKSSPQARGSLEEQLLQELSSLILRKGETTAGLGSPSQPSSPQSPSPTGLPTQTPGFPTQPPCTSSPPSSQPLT
UniProt Q8N2F6: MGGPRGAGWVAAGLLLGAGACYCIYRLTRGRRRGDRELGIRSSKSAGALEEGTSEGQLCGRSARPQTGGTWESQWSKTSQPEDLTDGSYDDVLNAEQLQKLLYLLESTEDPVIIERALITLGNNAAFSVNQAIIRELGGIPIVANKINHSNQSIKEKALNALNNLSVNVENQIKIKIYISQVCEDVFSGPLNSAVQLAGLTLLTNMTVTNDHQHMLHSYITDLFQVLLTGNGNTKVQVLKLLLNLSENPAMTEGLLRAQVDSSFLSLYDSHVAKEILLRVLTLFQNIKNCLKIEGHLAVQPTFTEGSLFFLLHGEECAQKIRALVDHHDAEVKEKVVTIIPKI
UniProt Q9Y576: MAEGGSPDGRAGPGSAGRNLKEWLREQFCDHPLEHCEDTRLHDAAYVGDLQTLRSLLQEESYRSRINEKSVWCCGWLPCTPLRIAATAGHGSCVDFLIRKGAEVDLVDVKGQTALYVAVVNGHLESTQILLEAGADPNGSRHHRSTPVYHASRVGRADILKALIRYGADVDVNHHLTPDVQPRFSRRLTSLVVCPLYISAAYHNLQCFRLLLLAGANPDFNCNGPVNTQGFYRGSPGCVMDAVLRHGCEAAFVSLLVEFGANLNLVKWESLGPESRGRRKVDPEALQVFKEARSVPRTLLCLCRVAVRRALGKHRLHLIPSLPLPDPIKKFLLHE

Experiments:
Experiment in all cases: log2 fold change, soluble protein after heating vs DMSO (PISA); higher = thermal stabilisation; K562 lysate, 10 uM; active = over 0.2 and 3.5 SD of the protein, either way, in both replicates (recomputed)
erlotinib = compound: C#Cc1cccc(Nc2ncnc3cc(OCCOC)c(OCCOC)cc23)c1 [erlotinib]
How it was run: (§1)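 K562 pellets were dounce-homogenised in PBS pH 7.4 with 1 mM MgCl2, and the crude extract at 1 mg/mL protein was treated with 10 μM compound for 30 min. Aliquots were heated for 3 min across 48°C-58°C, pooled, and brought to 0.5% NP-40 at 4°C; soluble protein was the supernatant after 21,000xg for 90 min. Soluble protein was quantified by TMTpro 16plex LC-MS/MS with channel sums equalised, and reported as log2 fold change in thermal stability against DMSO controls, with values from duplicates.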

[1] = compound: C1=CC(=CC=C1C2=NC3=C(N2)C=C(C=C3)C(=O)N)OC4=CC=C(C=C4)Cl
How it was run: as §1

[2] = compound: C1CCN(C1)C(=O)NC2=CC=CC(=C2)NC3=NC=C(C(=N3)NCCC4=CN=CN4)Br
How it was run: as §1

[3] = compound: C1CN(CCC1(CC2=CC=C(C=C2)Cl)N)C3=NC=NC4=C3C=CN4
How it was run: as §1

[4] = compound: CC(C)C1=C2N=C(C=C(N2N=C1)NCC3=CC=CC=C3)NCCCCCCN
How it was run: as §1

[5] = compound: CC(=O)c1cnc2ccc(-c3cc(Cl)c(O)c(Cl)c3)nc2c1N[C@H]1CC[C@H](CN(C)C)CC1
How it was run: as §1

[6] = compound: CC1=CC=C(C=C1)SC2=C3C=C(SC3=CN=C2)C(=O)N
How it was run: as §1

[7] = compound: CC1=C(C(CC(=O)N1)C2=CC=C(C=C2)C(F)(F)F)C(=O)NC3=C(C=C4C(=C3)C=NN4)F
How it was run: as §1

[8] = compound: CC1=C(C2=C(C=C1)C(=O)C3=CC=CC=C3N2CCCN)C
How it was run: as §1

[9] = compound: CC1=C(C=C(C=C1)NC(=O)C2=CC(=CC=C2)C(C)(C)C#N)NC3=CC4=C(C=C3)N=CN(C4=O)C
How it was run: as §1

[10] = compound: C/C(=N\NC(=O)C1=CC(=CC=C1)S(=O)(=O)N2CCOCC2)/C3=C(C=CC(=C3)Cl)O
How it was run: as §1

[11] = compound: C1=CC2=C(C=CC(=C2)/C=C\3/C(=O)NC(=NCC4=CC=CS4)S3)N=C1
How it was run: as §1

[12] = compound: C1=CC=C2C(=C1)C3=NNC4=CC=CC(=C43)C2=O
How it was run: as §1

[13] = compound: C1=CC2=NC=CN=C2C=C1/C=C/3\C(=O)NC(=O)S3
How it was run: as §1

ibrutinib = compound: C=CC(=O)N1CCC[C@@H](n2nc(-c3ccc(Oc4ccccc4)cc3)c3c(N)ncnc32)C1 [ibrutinib]
How it was run: as §1

[14] = compound: C1=CC=C(C=C1)C2=NC(=C(N2)C3=CC=NC=C3)C4=CC(=C(C=C4)Cl)O
How it was run: as §1

IRAK-1-4 Inhibitor I = compound: C1COCCN1CCN2C3=CC=CC=C3N=C2NC(=O)C4=CC(=CC=C4)[N+](=O)[O-] [IRAK-1-4 Inhibitor I]
How it was run: as §1

ralimetinib = compound: CC(C)(C)Cn1c(N)nc2ccc(-c3[nH]c(C(C)(C)C)nc3-c3ccc(F)cc3)nc21 [ralimetinib]
How it was run: as §1

[15] = compound: CC(C)(O)CC(=O)NCCn1ccc2ncnc(Nc3ccc(Oc4cccc(C(F)(F)F)c4)c(Cl)c3)c21
How it was run: as §1

[16] = compound: CC1=C(C=C(C=C1)NC(=O)C2=CC(=CC=C2)N(C)C)NC(=O)C3=CC=C(C=C3)O
How it was run: as §1

Measured: log2 fold change

ARHGEF16 (UniProt Q5VV41)
inactive: erlotinib -0.015 | [1] -0.027 | [2] -0.453 | [3] 0.062 | [4] 0.027

ASAP2 (UniProt O43150)
inactive: [5] 0.046 | [6] -0.061

ARRDC1-AS1 (UniProt Q9H2J1)
inactive: [7] -0.286

APOD (UniProt P05090)
inactive: [2] 0.165 | [3] -0.125 | [5] -0.09 | [8] -0.061 | [9] -0.025 | [6] -0.102

APOC3 (UniProt P02656)
inactive: [10] 0.057 | [11] 0.128 | [12] 0.038 | [2] 0.332 | [3] -0.126 | [8] -0.039 | [9] 0.185

ARHGAP12 isoform 3 (UniProt Q8IWW6)
inactive: [10] -0.158 | [11] -0.083 | [12] 0.047 | [8] -0.005

APOH (UniProt P02749)
inactive: [13] -0.022 | ibrutinib -0.008 | [5] -0.102 | [9] -0.109 | [6] -0.048

ARMC7 (UniProt Q9H6L4)
inactive: [10] -0.2 | [11] 0.415 | [12] 0.104 | [8] -0.11 | [9] 0.038

ARL5A (UniProt Q9Y689)
inactive: [10] 0.076 | [11] -0.037 | [14] -0.012 | [12] -0.075 | [2] 0 | [3] -0.008 | IRAK-1-4 Inhibitor I 0 | [5] -0.036 | ralimetinib 0.065 | [15] -0.029 | [7] 0.072 | [8] -0.195 | [9] -0.029 | [16] -0.022 | [6] 0.03

ARHGEF12 isoform 2 (UniProt Q9NZN5)
inactive: [2] -0.104 | [3] 0.038 | [9] -0.18

ARL6 isoform 2 (UniProt Q9H0F7)
inactive: erlotinib -0.103 | [1] -0.302 | [4] 0.072 | [9] -0.115

ART4 (UniProt Q93070)
inactive: [10] -0.05 | [11] 0.026 | [13] -0.028 | [12] 0.044 | [2] -0.017 | [3] 0.007 | ibrutinib 0.093

ARHGAP27 (UniProt Q6ZUM4)
inactive: [10] -0.087 | [11] -0.1 | [13] 0.163 | [12] 0.066 | ibrutinib 0.02

Quoted at random: 2 entries already listed
ARHGAP27 (UniProt Q6ZUM4)
inactive: [10] -0.087 | [11] -0.1 | [13] 0.163 | [12] 0.066 | ibrutinib 0.02

ARL5A (UniProt Q9Y689)
inactive: [10] 0.076 | [11] -0.037 | [14] -0.012 | [12] -0.075 | [2] 0 | [3] -0.008 | IRAK-1-4 Inhibitor I 0 | [5] -0.036 | ralimetinib 0.065 | [15] -0.029 | [7] 0.072 | [8] -0.195 | [9] -0.029 | [16] -0.022 | [6] 0.03

More entries:

ARV1 (UniProt Q9H2C2)
inactive: [10] 0.021 | [11] 0.01 | [13] 0.07 | [14] -0.059 | [12] 0.005 | [2] 0.168 | [3] 0.072 | IRAK-1-4 Inhibitor I -0.014 | ibrutinib -0.099 | [5] 0.065 | ralimetinib 0.044 | [15] -0.011 | [7] 0.104 | [8] 0.334 | [9] 0.072 | [16] -0.042 | [6] 0.028

API5 isoform 1 (UniProt Q9BZZ5)
inactive: [14] 0.048 | IRAK-1-4 Inhibitor I 0 | ralimetinib -0.053 | [15] 0.038 | [7] -0.152 | [9] -0.055 | [16] -0.023

ARMC8 isoform 6 (UniProt Q8IUR7)
inactive: erlotinib -0.088 | [1] -0.009 | [5] -0.019 | [4] 0.015 | [6] -0.005

ARHGEF2 (UniProt V9GYF0)
inactive: [10] -0.056 | [11] -0.125 | [14] 0.012 | [12] 0.078 | [2] -0.009 | [3] -0.058 | IRAK-1-4 Inhibitor I 0.062 | [5] 0.02 | ralimetinib -0.041 | [15] -0.126 | [7] -0.055 | [8] -0.011 | [16] 0.008 | [6] -0.07

ARRDC3 (UniProt Q96B67)
inactive: erlotinib 0.024 | [1] 0.012 | [4] -0.201

APTX isoform 4 (UniProt Q7Z2E3)
inactive: [7] -0.189

ART3 (UniProt Q13508)
inactive: [14] -0.174 | IRAK-1-4 Inhibitor I 0.073 | ralimetinib 0.19 | [15] -0.143 | [16] -0.383

ARL6IP4 isoform 2 (UniProt Q66PJ3)
inactive: [5] 0.039 | [6] 0.112

APOL1 isoform 2 (UniProt O14791)
inactive: [2] 0.084 | [3] 0.09 | [8] -0.08

ARHGAP39 isoform 2 (UniProt Q9C0H5)
inactive: [5] -0.165 | [9] -0.062 | [6] 0.037

ARFIP1 isoform 2 (UniProt P53367)
inactive: [10] 0 | [11] -0.045 | [13] -0.026 | [14] 0.034 | [12] -0.216 | [2] -0.012 | [3] -0.028 | IRAK-1-4 Inhibitor I -0.02 | ibrutinib 0.002 | [5] 0.028 | ralimetinib 0.096 | [15] -0.047 | [7] -0.139 | [8] 0.018 | [16] 0.021 | [6] 0.001

ARMC8 (UniProt C9JAA7)
inactive: [2] 0.169 | [3] -0.243

ARL4A (UniProt P40617)
inactive: [2] -0.021 | [3] -0.105 | [7] 0.055

ARL6IP4 isoform 7 (UniProt Q66PJ3)
inactive: [13] -0.157 | ibrutinib -0.271

ARHGAP15 (UniProt Q53QZ3)
inactive: [2] 0.049 | [3] 0.149 | [5] -0.1 | [9] -0.268 | [6] 0.038

ARAP3 (UniProt Q8WWN8)
inactive: erlotinib 0.047 | [1] -0.087 | [2] 0.029 | [3] -0.148 | [4] -0.133 | [7] -0.003 | [8] 0.014

ARMC10 isoform 2 (UniProt Q8N2F6)
inactive: [14] 0.051 | [2] 0.185 | [3] 0.112 | IRAK-1-4 Inhibitor I 0.063 | ralimetinib -0.141 | [15] 0.033 | [8] -0.063 | [16] 0.003

ASB1 (UniProt Q9Y576)
inactive: [10] -0.315 | [11] 0.056 | [13] 0.068 | [14] 0.034 | [12] 0.015 | [2] -0.14 | [3] 0.344 | IRAK-1-4 Inhibitor I 0.008 | ibrutinib -0.023 | ralimetinib 0.194 | [15] -0.096 | [7] 0.047 | [9] 0.012 | [16] 0.109

ARL6IP4 isoform 4 (UniProt Q66PJ3)
inactive: [10] 0.138 | [11] 0.048 | [12] 0.018 | [5] -0.059 | [6] 0.071
